# According to article doi:10.64898/2025.12.23.696137:
# The chains behind the UniProt entries cited, without tags or fusion partners. Residues count along the entry.
# UniProt Q9EPL4, residues 19-318: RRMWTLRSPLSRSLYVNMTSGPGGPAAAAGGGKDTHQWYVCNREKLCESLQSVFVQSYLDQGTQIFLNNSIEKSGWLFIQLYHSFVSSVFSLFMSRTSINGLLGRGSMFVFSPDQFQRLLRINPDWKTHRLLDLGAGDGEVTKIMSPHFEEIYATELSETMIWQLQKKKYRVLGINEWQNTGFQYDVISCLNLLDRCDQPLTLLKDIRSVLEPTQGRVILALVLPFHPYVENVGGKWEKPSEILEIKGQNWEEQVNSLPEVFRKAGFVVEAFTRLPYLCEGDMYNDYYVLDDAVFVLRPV
# Read-outs that look alike come from different tables or passages of the source. These are yes or no findings as the source states them, for the method shown. In cells and extracts the contact can be indirect. Some binding calls cover weakened binding; strength is not graded here.
# Experiments:
# [1] = target: METTL9-FLAG wild type (mouse) (mouse) (UniProt Q9EPL4); experiment: co-IP
# [2] = target: METTL9-FLAG wild type (mouse) (mouse) (UniProt Q9EPL4); experiment: co-IP; remark: listed apart in the source
substance,measurement,setting,value
METTL9-FLAG wild type (mouse) (from UniProt Q9EPL4 19-318) (enzyme),binding,[1],binds
same,binding,[2],binds
